In patent US20240317885A1:
These are yes or no findings as the source states them, for the method shown. Some binding calls cover weakened binding; strength is not graded here.

T1: TIP1 on the surface of human lung cancer cells (A549, H460) (human) (UniProt O14907)
T1 sequence: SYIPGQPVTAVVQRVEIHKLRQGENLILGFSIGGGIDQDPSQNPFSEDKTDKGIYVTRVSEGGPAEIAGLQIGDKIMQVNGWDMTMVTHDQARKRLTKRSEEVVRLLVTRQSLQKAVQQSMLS

T2: Tax interacting protein-1 (TIP1), recombinant / purified protein (Homo sapiens (Human)) (UniProt O14907)
T2 sequence: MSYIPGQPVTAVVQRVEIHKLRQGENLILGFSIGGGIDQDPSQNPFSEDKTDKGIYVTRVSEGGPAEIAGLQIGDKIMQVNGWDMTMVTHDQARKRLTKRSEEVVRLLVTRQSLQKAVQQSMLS


Experiments:
[1] = target: T1, TIP1 on the surface of human lung cancer cells (A549, H460) (human); test: flow cytometry on A549 and H460 human lung cancer cells (FIG. 13, 14, 15)
[2] = target: T2, Tax interacting protein-1 (TIP1), recombinant / purified protein (Homo sapiens (Human)); test: indirect ELISA on coated recombinant TIP1 protein (FIG. 9A,B)
[3] = target: T1, TIP1 on the surface of human lung cancer cells (A549, H460) (human); test: flow cytometry on irradiated H460 cells
[4] = target: T1, TIP1 on the surface of human lung cancer cells (A549, H460) (human); test: flow cytometry concentration curve on H460 and A549 cells
[5] = target: T1, TIP1 on the surface of human lung cancer cells (A549, H460) (human); test: flow cytometry on irradiated A549 cells
[6] = target: T1, TIP1 on the surface of human lung cancer cells (A549, H460) (human); test: near-infrared imaging of labeled antibody in mice with irradiated and sham A549 / H460 tumors
[7] = target: T2, Tax interacting protein-1 (TIP1), recombinant / purified protein (Homo sapiens (Human)); test: Western blot of total cellular proteins / purified TIP1 probed with the antibody (FIG. 12)
[8] = target: T2, Tax interacting protein-1 (TIP1), recombinant / purified protein (Homo sapiens (Human)); test: indirect ELISA, three-fold dilutions of expression supernatant on TIP1 protein; KD not calculated

binding [1] | binding [2] | binding [3] | binding [4] | binding [5] | binding [6] | binding [7] | binding [8] | Binder
binds | binds | binds | binds | binds | binds | binds | – | human IgG1 v111 (antibody, V domains shown) VH: QMQLVQSGAEVKKPGESLKISCKGSGYSFTSNWIGWVRQMPGKGLEWMGIIYPGDSDTRYSPSFQGQVTISADKSISTAYLQWSSLKASDTAMYYCARQQGHDAFDIWGQGTTVTVSS VL: SYELTQPPSVSVSPGQTARITCSGDALPKRYAYWYRQKPGQAPVLVIQKDTERPSGIPERFSGSISGTTVTLTISGVQAEDEADYYCQSTDSSASYAVFGGGTKLTVL
– | – | – | – | – | – | – | binds | v111 (affinity-improved variant of scFv-154, before grafting into human IgG1) (scFv, V domains shown) VH: QMQLVQSGAEVKKPGESLKISCKGSGYSFTSNWIGWVRQMPGKGLEWMGIIYPGDSDTRYSPSFQGQVTISADKSISTAYLQWSSLKASDTAMYYCARQQGHDAFDIWGQGTTVTVSS VL: SYELTQPPSVSVSPGQTARITCSGDALPKRYAYWYRQKPGQAPVLVIQKDTERPSGIPERFSGSISGTTVTLTISGVQAEDEADYYCQSTDSSASYAVFGGGTKLTVL
